Data on 1 sequence can be found in PMC5996148.

By UniProt entry, the sequences of proteins in these tests, tags left out. Where a name states a change or a piece, a line headed by the entry shows the natural chain unless it says otherwise.
UniProt Q92481: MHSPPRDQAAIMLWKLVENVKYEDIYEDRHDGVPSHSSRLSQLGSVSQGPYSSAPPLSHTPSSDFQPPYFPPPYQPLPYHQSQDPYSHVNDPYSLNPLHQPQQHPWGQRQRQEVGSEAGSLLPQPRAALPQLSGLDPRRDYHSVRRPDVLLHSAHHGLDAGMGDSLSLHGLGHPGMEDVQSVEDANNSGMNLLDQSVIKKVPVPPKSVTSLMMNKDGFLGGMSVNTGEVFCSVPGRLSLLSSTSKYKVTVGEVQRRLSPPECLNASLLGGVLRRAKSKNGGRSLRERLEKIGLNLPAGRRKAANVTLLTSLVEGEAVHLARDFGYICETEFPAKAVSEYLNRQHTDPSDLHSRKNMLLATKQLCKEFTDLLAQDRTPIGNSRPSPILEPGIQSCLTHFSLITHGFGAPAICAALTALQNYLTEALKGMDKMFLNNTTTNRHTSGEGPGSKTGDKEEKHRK

What all share (experiment): protein microarray (ProtoArray v5.0), streptavidin-Alexa Fluor 647
Holding throughout (conditions): 3'-biotin; 20 mM Tris (pH 7.5), 5 mM MgCl2, 100 mM KCl, 0.1% Tween-20, A/T-rich and random oligonucleotide blockers; temperature not stated; high values mean tight binding

The target of one assay is TFAP2B (UniProt Q92481).
The subject of a further assay is THEM5 (human).
Another assay addresses T1, THEX1 (UniProt Q8IV48).
T1 sequence: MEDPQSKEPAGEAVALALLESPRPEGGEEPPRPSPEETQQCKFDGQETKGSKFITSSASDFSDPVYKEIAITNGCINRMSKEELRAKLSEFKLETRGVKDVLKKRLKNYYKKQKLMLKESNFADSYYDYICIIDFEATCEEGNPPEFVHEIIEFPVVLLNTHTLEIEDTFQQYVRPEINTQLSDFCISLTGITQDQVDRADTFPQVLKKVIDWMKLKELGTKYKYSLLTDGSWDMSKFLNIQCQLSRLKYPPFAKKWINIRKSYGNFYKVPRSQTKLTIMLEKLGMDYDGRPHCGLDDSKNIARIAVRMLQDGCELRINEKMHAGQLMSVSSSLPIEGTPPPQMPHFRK

The subject of another assay is THRSP (human).
The test system of a further assay is TICAM2 (human).
The subject of the next assay is TIMM8A (human).
For a further assay, the system named is TIMM8B (human).
Another assay deals with TINAGL1 (human).
For the next assay, the system named is TIPIN (human).
Another assay has as its system TLE3 (human).

Values joined by “and” are separate entries in the source; they are usually repeats but may differ in a detail not shown here. Equal entries are not always repeated. The list shows a part of the results. For some of these results: The exact form of the protein is not confirmed.

As to “GGGGACAGGGGTATGGGGAGGGG [G4-3 biotinylated (CtG)]”, the binding signal with TFAP2B is 3.73 z-score; in the assay on THEM5 (human), -0.328 z-score; in the assay with THEX1 it was 4.03 z-score; in the assay on THRSP (human), -0.317 z-score; in the assay with TICAM2 (human), -0.301 z-score; with TIMM8A (human), -0.325 z-score. For the same sequence, the binding signal with TIMM8B (human) is -0.331 z-score; in the assay on TINAGL1 (human), -0.309 z-score; in the assay with TIPIN (human), -0.337 z-score; in the assay with TLE3 (human), -0.337 z-score and -0.33 z-score.
